# PubChem BioAssay AID504804, Drosophila RNAi Screening Center, 2011
# Screen: 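dsRNAs that improve Kc cell survival under doxorubicin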 (primary screen)
# System: Drosophila Kc cells
# Knock-down reagent: long dsRNA against Drosophila genes, 0.5 µg dsRNA per well
# Timing: 96 h (48 h knock-down, then 48 h drug)
# Conditions: doxorubicin 5 µg/ml for 48 h, added 48 h after dsRNA
# Measured: 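Luminescent ATP counts per replicate, not normalised, reflecting viable cells after 48 h dsRNA knock-down followed by 48 h of 5 µg/ml doxorubicin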
# Direction: raw ATP luminescence: higher = more viable cells, protection from doxorubicin
# Call rule: 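z-score of 2 or more over plate mean in both duplicates, retained only when retests and separate dsRNAs confirm the protection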
# In all, the deposit lists about 19,000 reagents; below is an unselected part of those that have a named target and a result. In the full data, 47 (0.25%) were called active. 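Signals are raw, not normalised; exact z-scores behind calls not deposited; actives needed confirmation, so some wells reaching 2 SD are inactive.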 A plus sign joins genes that one reagent is predicted to hit.
predicted target,amplicon,"raw ATP luminescence, replicate 1","raw ATP luminescence, replicate 2",Call
CG13067 (GeneID 39785),DRSC09950,36837,28347,inactive
CG9029 (GeneID 33815),DRSC03129,30387,30157,inactive
CG2909 (GeneID 31958),DRSC18241,2.96e5,2.56e5,inactive
CG13527 (GeneID 37615),DRSC04169,66383,51797,inactive
CG34315 + Orc3,DRSC07642,46133,74047,inactive
Fas2 (GeneID 31364),DRSC17308,2.14e5,2.05e5,inactive
Fas2 (GeneID 31364),DRSC17309,2.18e5,2.15e5,inactive
Jhbp4 (GeneID 41948),DRSC14222,81850,78220,inactive
Ir94a (GeneID 318610),DRSC13538,1.53e5,2.29e5,inactive
dx (GeneID 31589),DRSC18767,25700,42290,inactive
CG3224 (GeneID 31600),DRSC18295,36630,47200,inactive
CG12531 (GeneID 32986),DRSC19466,2.66e5,2.57e5,inactive
CG5246 (GeneID 42072),DRSC15751,84910,73120,inactive
CG17982 (GeneID 31739),DRSC18143,35730,56150,inactive
CG42749 (GeneID 31438),DRSC18091,38590,49130,inactive
CG42749 (GeneID 31438),DRSC18092,40910,41840,inactive
CG34161 (GeneID 5740441),DRSC01132,2.84e5,3.11e5,inactive
CG3402 (GeneID 38077),DRSC08567,65270,69017,inactive
CG17477 (GeneID 42067),DRSC15239,72190,82790,inactive
Jon74E (GeneID 39959),DRSC10617,40780,36110,inactive
CG6912 (GeneID 41820),DRSC16132,70540,88790,inactive
kek5 (GeneID 32930),DRSC19438,3.11e5,3.03e5,inactive
CG14301 (GeneID 42235),DRSC14780,72880,47520,inactive
nec (GeneID 45908),DRSC06769,53743,79263,inactive
Patr-1 (GeneID 42058),DRSC14159,31540,31960,inactive
udt (GeneID 42809),DRSC14214,61410,53690,inactive
CG12460 (retired record) (GeneID 3355078),DRSC20970,1.93e5,2.03e5,inactive
CG34200 (GeneID 5740389),DRSC04804,87213,94897,inactive
I-t (GeneID 41414),DRSC16713,47767,63140,inactive
CG14538 (retired record) (GeneID 34056),DRSC02396,37143,56550,inactive
CG12128 (GeneID 36042),DRSC06104,49253,46357,inactive
Pbp45 (GeneID 41920),DRSC16509,69830,55540,inactive
ND-B14.5B (GeneID 33528),DRSC00346,26020,25860,inactive
CG9760 (GeneID 39388),DRSC11101,69420,72030,inactive

Reprinted from the entries so far for reference:
predicted target,amplicon,"raw ATP luminescence, replicate 1","raw ATP luminescence, replicate 2",Call
kek5 (GeneID 32930),DRSC19438,3.11e5,3.03e5,inactive
CG14301 (GeneID 42235),DRSC14780,72880,47520,inactive
nec (GeneID 45908),DRSC06769,53743,79263,inactive
Patr-1 (GeneID 42058),DRSC14159,31540,31960,inactive
udt (GeneID 42809),DRSC14214,61410,53690,inactive
CG12460 (retired record) (GeneID 3355078),DRSC20970,1.93e5,2.03e5,inactive

Further records:
predicted target,amplicon,"raw ATP luminescence, replicate 1","raw ATP luminescence, replicate 2",Call
lush (GeneID 40136),DRSC11364,79877,79410,inactive
Ptpmeg2 (GeneID 31907),DRSC18277,3.52e5,2.96e5,inactive
Ptpmeg2 (GeneID 31907),DRSC18278,3.64e5,3.27e5,inactive
Sgs3 (GeneID 39288),DRSC11280,50210,53097,inactive
CG13126 (GeneID 34323),DRSC02222,44863,49323,inactive
CG10472 (GeneID 38688),DRSC09730,43587,42543,inactive
IleRS-m (GeneID 39762),DRSC10506,70850,76273,inactive
DIP-delta (GeneID 5740816),DRSC10214,75780,85877,inactive
DIP-delta (GeneID 5740816),DRSC10450,79943,84723,inactive
CG31806 (GeneID 261615),DRSC02787,73173,70487,inactive
CG6142 (GeneID 43178),DRSC15976,59750,57630,inactive
CG18823 (GeneID 59184),DRSC18168,51450,64460,inactive
TTLL4B (GeneID 33609),DRSC00636,83977,63703,inactive
vih (GeneID 44118),DRSC09778,58057,57707,inactive
Got2 (GeneID 33373),DRSC00643,1.09e5,75833,inactive
CG42673 (GeneID 39111),DRSC08989,1.75e5,1.71e5,inactive
CG42673 (GeneID 39111),DRSC08991,19457,19813,inactive
CG42673 (GeneID 39111),DRSC10177,76353,61880,inactive
CG42673 (GeneID 39111),DRSC10264,72620,63917,inactive
CG42673 (GeneID 39111),DRSC10353,74860,71453,inactive
CG42673 (GeneID 39111),DRSC10354,65740,82690,inactive
CG6149 (GeneID 39277),DRSC10593,54340,55163,inactive
Nup58 (GeneID 42342),DRSC16235,58160,69960,inactive
